Reference: patent US20240168011A1, “CLEARANCE ASSAY” (Akershus Universitetssykehus HF, priority 2021, published 2024)
“Also recorded” adds a separate entry of the source. For at least one compound, name, drawing or mass did not settle the structure.

System: THP-1 cells
Assay: Chase assay of Aβ catabolism, Simoa immunoassays of intracellular Aβ fragments (Example 1)
Assay type: cell-based
Conditions: TPA-differentiated THP-1; 100 ng/ml Abeta40 2 h, 4 hours chase; 100 nM Bafilomycin, 100 nM Rapamycin, 100 μM Neprilysin inhibitor, 200 nM BACE inhibitor, 1 μM IDE inhibitor; vs 4 hour chase
Protocol: To adjust for inter-day variations in measurements for the different experiments, values were normalized using the baseline condition as the reference for each day of experiments using the following formula: [(biomarker value/mean biomarker value)[…])].
Statistical analyses were carried out with one-way ANOVA models. If a significant (p<0.05) omnibus (F-test) ANOVA was shown, planned comparisons according to our hypotheses were carried out. This included a main comparison between the reference condition and experimental conditions (endolysosomal inhibitors and autophagosome activators). The Figures thus indicate within each bar the percentage change, and associated statistical significance (p-value) or lack thereof (n.s.), as compared to the reference condition (100%) (i.e. the main comparison). For some experiments (FIGS. 4, 5 and 7), additional comparisons between experimental conditions were conducted in accordance with hypotheses. Significant between-group differences for these comparisons are shown with horizontal bars with the associated statistical significance (p-value), or lack thereof (n.s.).
Aβ catabolism and detoxification, and the effect of example inhibitors and activators thereon, was measured using antibodies specific for intracellular Aβ mid-domain peptides, i.e. catabolism products. In particular, inhibition of endolysosomal activity is expected to reduce degradation and increase concentrations of species, here studied with Bafilomycin, which blocks V-ATPase and inhibits acidification of endolysosomes, thereby inhibiting endolysosomal enzyme activities. Addition of inhibitors of endolysosomal enzymes Neprilysin (Saido 2013) and Insulin Degradation Enzymes are expected to have similar effects (Jha, Jha et al. 2015, Sikanyika, Parkington et al. 2019), whereas BACE1 is involved both in Aβ generation and […] (Vassar, Kovacs et al. 2009, Liebsch, Kulic et al. 2019). Enhancing macroautophagy using Rapamycin is also expected to increase Aβ catabolism (FIG. 3; Spilman, Podlutskaya et al. 2010, Malik, Maddison et al. 2019) […]

Compound: CO[C@H]1C[C@@H]2CC[C@@H](C)[C@@](O)(O2)C(=O)C(=O)N2CCCC[C@H]2C(=O)O[C@H]([C@H](C)C[C@@H]2CC[C@@H](O)[C@H](OC)C2)CC(=O)[C@H](C)/C=C(\C)[C@@H](O)[C@@H](OC)C(=O)[C@H](C)C[C@H](C)/C=C/C=C/C=C/1C [Rapamycin]
- intracellular Aβ20-x level: unchanged
- intracellular Aβx-34 level: increases clearance; also recorded: strongly reduces
- intracellular Aβx-40/42 level: unchanged
